Results from the supplement of paper PMC5949888.
Most values lie at the floor of the assay. Slopes are relative: functional sequences can read slightly below zero.

System: Saccharomyces cerevisiae PS128 hsf1 delta, HSF1(1-493) fusion
Experiment: growth estimate (transactivation domain function in HSF1 fusion, heat-shock survival) (a.u. (slope of normalised read count over time)); higher = stronger growth at 37°C, i.e. more transactivation activity
Conditions: library: random library

Substance | growth estimate
LGRDRVWHEAGTYPMERP | -0.229
LGREAASGRRDFLCFLGDSK | < -0.25
LGRG | < -0.25
LGRGTLVLS | < -0.25
LGRINRERWVVTDRSDGCG | < -0.25
LGRRELPMVASLLVLWLSAL | < -0.25
LGRTYAEYANHLSVAPLLCN | < -0.25
LGRVRLRAHTTRVS | -0.243
LGSFSVYSQP | -0.243
LGSGPGKRYADLVRMGDPEM | < -0.25
LGSKGRTTRMKCHPPRTITE | < -0.25
LGSRDRLAQRVGVIVIPRND | < -0.25
LGSYG | < -0.25
LGSYRYELGRGCGNSFHSSL | < -0.25
LGTCYGGPPARKEPVVQIIT | < -0.25
LGTPVSGKCTVPEIGRSARG | < -0.25
LGVCG | < -0.25
LGVVMSPAMRSPGGCGYLPK | < -0.25
LGVVSVNLLSRPLSAPAWQN | < -0.25
LGWQELSIHGLGLKPLLAPS | < -0.25
LGWTVQLLMTIRVRSAEEAT | < -0.25
LGY | < -0.25
LGYEEWKLYRAPVCKPLQNE | < -0.25
LHAFLSSYV | < -0.25
LHAN | < -0.25

An excerpt of the results above, as a working copy:
Substance | growth estimate
LGSYG | < -0.25
LGSYRYELGRGCGNSFHSSL | < -0.25
LGTCYGGPPARKEPVVQIIT | < -0.25

Following part

Substance | growth estimate
LHAYV | < -0.25
LHCA | < -0.25
LHEAAGIAASSGNK | < -0.25
LHEHSAQLSFVIKGPTGLLA | < -0.25
LHGKKGYLSIPLSHLHLYSV | < -0.25
LHGSVATSEARSSLLACVAK | < -0.25
LHKCIHHAWYGALCG | < -0.25
LHLSMIAIDAAVFSLERLQD | < -0.25
LHPAV | < -0.25
LHPTLRKLLCPTIVERRTKS | < -0.25
LHRILTRAFLSTQSSVWSRH | < -0.25
LHRIPMVMR | < -0.25
LHRNATRDVRRRTFFNENIP | < -0.25
LHRS | -0.221
LHRSRVRLFVADLPENRAFG | < -0.25
LHSAKVFEYSWTFLANGRSI | < -0.25
LHSNVSNQIRDIVIGRTPRR | < -0.25
LHST | < -0.25
LHSTSCRQRGQG | < -0.25
LHTAHYHDWRAGTGIMWTG | < -0.25
LHTVIPGVLQSLSGSRAEEV | < -0.25
LHVKKRQCFSILSPRPGIGT | < -0.25
LIAEDVFSSVQIVRRDNSMK | < -0.25
LIALKWVPGHGYAILRTTQT | < -0.25
LICGNTALPRCQSGSSRHRR | < -0.25

Substance | growth estimate
LICYLVKENNLAGHQERVGP | < -0.25
LIDGRCRAYNRVRANHGRPY | < -0.25
LIDMGALFTVEVQTAKIGSL | -0.129
LIGACAWACCLRASGTCE | < -0.25
LIGIFYLDWESLLSRPGVTG | < -0.25
LIGR | < -0.25
LIIPNLDVIACQ | < -0.25
LIKPC | < -0.25
LILTME | < -0.25
LIMSLYLGLLDRTP | -0.248
LINATCPSKGWRASLGNATP | < -0.25
LIPDNGVGVGLGRLEGG | < -0.25
LIPGPGVCCELGQNARYIAP | < -0.25
LIPRSLDAYFNL | -0.0941
LIQIAAWAVPLGSRSFVSTN | < -0.25
LIRHDAH | < -0.25
LIRLAGYPVRCCMCSSRMLG | < -0.25
LIRLPTAMHSSGYCHGTLFY | < -0.25
LIRSTSDQGQSDTSNLIIDS | < -0.25
LISMVVGVQ | < -0.25
LISR | < -0.25
LISTPIR | < -0.25
LISTSGFDLRQSSRGFTLHV | < -0.25
LISVSVSPVQLAGWWGQ | < -0.25
LITGH | < -0.25

Substance | growth estimate
LITKQL | < -0.25
LIV | < -0.25
LIVDLGGVPGYLTRSIRGEY | < -0.25
LIVELRDYMRTWDFHSGWSI | < -0.25
LIVESV | < -0.25
LIVGGHMETCASKRNVYVGC | < -0.25
LIWGRVFRTQSCPRRGSWKR | < -0.25
LIYIARHRWIPMLASWLSWA | < -0.25
LKARQPEVFEQVILELPHVK | < -0.25
LKCGGGGNNPLAA | < -0.25
LKCGLTGTIIVVEVHGGAWR | < -0.25
LKCLEGWSIARLLWSKVGPA | < -0.25
LKDGQAKIRCWLSLGPCIYT | < -0.25
LKDGRCRLAFQLYLGPRAPG | < -0.25
LKDSIPERYSLARPR | < -0.25
LKEATCTDGQVHTIVTMEPV | < -0.25
LKFQHPKPGK | -0.245
LKGPPDSDLLPAQVGLYPRV | < -0.25
LKGTSSGPLR | < -0.25
LKI | < -0.25
LKKPLSSSQHCLKGAKRATE | < -0.25
LKLDG | < -0.25
LKLDSR | < -0.25
LKLGRGSGRGGAKARVIQGT | < -0.25
